Some of the results follow.
Columns and labels:
Test in all cases: glycan array binding signal (z-score within array); higher = stronger binding
Settings in all cases: glycan notation: IUPAC condensed, linker removed
[1] = molecular target: Fuc(a1-2)Gal(b1-4)GlcNAc(b1-3)Gal(b1-4)GlcNAc(b1-3)Gal(b1-4)GlcNAc
Procedure, shortened: (§1)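 Columns mapping to the same glycan were averaged after glycan names were converted to IUPAC-condensed notation. The data come from 3228 arrays in the Consortium for Functional Glycomics database, limited to those with an available protein sequence. Binding is reported as a within-array Z-score averaged across arrays of one protein sequence and across linkers.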

[2] = molecular target: Fuc(a1-2)Gal(b1-4)GlcNAc(b1-3)GalNAc
Procedure, shortened: as §1

[3] = molecular target: Fuc(a1-2)Gal(b1-4)GlcNAc(b1-3)[Fuc(a1-2)Gal(b1-4)GlcNAc(b1-6)]GalNAc
Procedure, shortened: as §1

[4] = molecular target: Fuc(a1-2)Gal(b1-4)GlcNAc(b1-3)[Fuc(a1-3)[Gal(b1-4)]GlcNAc(b1-6)]Gal(b1-4)Glc
Procedure, shortened: as §1

[5] = molecular target: Fuc(a1-2)Gal(b1-4)GlcNAc(b1-6)GalNAc
Procedure, shortened: as §1

[6] = molecular target: Fuc(a1-2)Gal(b1-4)GlcNAc6S
Procedure, shortened: as §1

[7] = molecular target: Fuc(a1-2)Gal(b1-4)[Fuc(a1-3)]GlcNAc
Procedure, shortened: as §1

[8] = molecular target: Fuc(a1-2)Gal(b1-4)[Fuc(a1-3)]GlcNAc(b1-2)Man(a1-3)[Fuc(a1-2)Gal(b1-4)[Fuc(a1-3)]GlcNAc(b1-2)Man(a1-6)]Man(b1-4)GlcNAc(b1-4)[Fuc(a1-6)]GlcNAc
Procedure, shortened: as §1

[9] = molecular target: Fuc(a1-2)Gal(b1-4)[Fuc(a1-3)]GlcNAc(b1-2)[Fuc(a1-2)Gal(b1-4)[Fuc(a1-3)]GlcNAc(b1-4)]Man(a1-3)[Fuc(a1-2)Gal(b1-4)[Fuc(a1-3)]GlcNAc(b1-2)Man(a1-6)]Man(b1-4)GlcNAc(b1-4)GlcNAc
Procedure, shortened: as §1

[10] = molecular target: Fuc(a1-2)Gal(b1-4)[Fuc(a1-3)]GlcNAc(b1-3)Gal(b1-4)[Fuc(a1-3)]GlcNAc
Procedure, shortened: as §1

[11] = molecular target: Fuc(a1-2)Gal(b1-4)[Fuc(a1-3)]GlcNAc(b1-3)Gal(b1-4)[Fuc(a1-3)]GlcNAc(b1-3)Gal(b1-4)[Fuc(a1-3)]GlcNAc
Procedure, shortened: as §1

[12] = molecular target: Fuc(a1-2)Gal(b1-4)[Fuc(a1-3)]GlcNAc(b1-3)GalNAc
Procedure, shortened: as §1

[13] = molecular target: Fuc(a1-2)Gal(b1-4)[Fuc(a1-3)]GlcNAc(b1-3)[Neu5Ac(a2-6)Gal(b1-4)GlcNAc(b1-6)]Gal(b1-4)Glc
Procedure, shortened: as §1

[14] = molecular target: Fuc(a1-2)Gal3S(b1-4)GlcNAc
Procedure, shortened: as §1

[15] = molecular target: Fuc(a1-2)Gal6S(b1-3)GlcNAc
Procedure, shortened: as §1

[16] = molecular target: Fuc(a1-2)Gal6S(b1-3)GlcNAc6S
Procedure, shortened: as §1

[17] = molecular target: Fuc(a1-2)Gal6S(b1-4)Glc
Procedure, shortened: as §1

[18] = molecular target: Fuc(a1-2)Gal6S(b1-4)Glc6S
Procedure, shortened: as §1

[19] = molecular target: Fuc(a1-2)[Gal(a1-3)]Gal
Procedure, shortened: as §1

[20] = molecular target: Fuc(a1-2)[Gal(a1-3)]Gal(b1-3)GalNAc
Procedure, shortened: as §1

[21] = molecular target: Fuc(a1-2)[Gal(a1-3)]Gal(b1-3)GalNAc(b1-3)Gal(a1-4)Gal(b1-4)Glc
Procedure, shortened: as §1

[22] = molecular target: Fuc(a1-2)[Gal(a1-3)]Gal(b1-3)GlcNAc
Procedure, shortened: as §1

[23] = molecular target: Fuc(a1-2)[Gal(a1-3)]Gal(b1-3)GlcNAc(b1-2)Man(a1-3)[Fuc(a1-2)[Gal(a1-3)]Gal(b1-3)GlcNAc(b1-2)Man(a1-6)]Man(b1-4)GlcNAc(b1-4)GlcNAc
Procedure, shortened: as §1

[24] = molecular target: Fuc(a1-2)[Gal(a1-3)]Gal(b1-3)GlcNAc(b1-2)Man(a1-3)[Fuc(a1-2)[Gal(a1-3)]Gal(b1-3)GlcNAc(b1-2)Man(a1-6)]Man(b1-4)GlcNAc(b1-4)[Fuc(a1-6)]GlcNAc
Procedure, shortened: as §1

[25] = molecular target: Fuc(a1-2)[Gal(a1-3)]Gal(b1-3)GlcNAc(b1-3)GalNAc
Procedure, shortened: as §1

[26] = molecular target: Fuc(a1-2)[Gal(a1-3)]Gal(b1-3)GlcNAc(b1-6)GalNAc
Procedure, shortened: as §1

[27] = molecular target: Fuc(a1-2)[Gal(a1-3)]Gal(b1-4)Glc
Procedure, shortened: as §1

[28] = molecular target: Fuc(a1-2)[Gal(a1-3)]Gal(b1-4)GlcNAc
Procedure, shortened: as §1

[29] = molecular target: Fuc(a1-2)[Gal(a1-3)]Gal(b1-4)GlcNAc(b1-2)Man
Procedure, shortened: as §1

[30] = molecular target: Fuc(a1-2)[Gal(a1-3)]Gal(b1-4)GlcNAc(b1-2)Man(a1-3)[Fuc(a1-2)[Gal(a1-3)]Gal(b1-4)GlcNAc(b1-2)Man(a1-6)]Man(b1-4)GlcNAc(b1-4)GlcNAc
Procedure, shortened: as §1

[31] = molecular target: Fuc(a1-2)[Gal(a1-3)]Gal(b1-4)GlcNAc(b1-2)Man(a1-3)[Fuc(a1-2)[Gal(a1-3)]Gal(b1-4)GlcNAc(b1-2)Man(a1-6)]Man(b1-4)GlcNAc(b1-4)[Fuc(a1-6)]GlcNAc
Procedure, shortened: as §1

[32] = molecular target: Fuc(a1-2)[Gal(a1-3)]Gal(b1-4)GlcNAc(b1-3)GalNAc
Procedure, shortened: as §1

[33] = molecular target: Fuc(a1-2)[Gal(a1-3)]Gal(b1-4)GlcNAc(b1-3)[Fuc(a1-2)[Gal(a1-3)]Gal(b1-4)GlcNAc(b1-6)]GalNAc
Procedure, shortened: as §1

[34] = molecular target: Fuc(a1-2)[Gal(a1-3)]Gal(b1-4)GlcNAc(b1-6)GalNAc
Procedure, shortened: as §1

[35] = molecular target: Fuc(a1-2)[Gal(a1-3)]Gal(b1-4)[Fuc(a1-3)]Glc
Procedure, shortened: as §1

[36] = molecular target: Fuc(a1-2)[Gal(a1-3)]Gal(b1-4)[Fuc(a1-3)]GlcNAc
Procedure, shortened: as §1

[37] = molecular target: Fuc(a1-2)[Gal(a1-3)]Gal(b1-4)[Fuc(a1-3)]GlcNAc(b1-3)GalNAc
Procedure, shortened: as §1

[38] = molecular target: Fuc(a1-2)[Gal(a1-4)]Gal(b1-4)GlcNAc
Procedure, shortened: as §1

[39] = molecular target: Fuc(a1-2)[GalNAc(a1-3)]Gal
Procedure, shortened: as §1

[40] = molecular target: Fuc(a1-2)[GalNAc(a1-3)]Gal(b1-3)GalNAc(a1-3)[Fuc(a1-2)]Gal(b1-4)GlcNAc
Procedure, shortened: as §1

[41] = molecular target: Fuc(a1-2)[GalNAc(a1-3)]Gal(b1-3)GalNAc(b1-3)Gal(a1-4)Gal(b1-4)Glc
Procedure, shortened: as §1

[42] = molecular target: Fuc(a1-2)[GalNAc(a1-3)]Gal(b1-3)GlcNAc
Procedure, shortened: as §1

[43] = molecular target: Fuc(a1-2)[GalNAc(a1-3)]Gal(b1-3)GlcNAc(b1-2)Man(a1-3)[Fuc(a1-2)[GalNAc(a1-3)]Gal(b1-3)GlcNAc(b1-2)Man(a1-6)]Man(b1-4)GlcNAc(b1-4)GlcNAc
Procedure, shortened: as §1

[44] = molecular target: Fuc(a1-2)[GalNAc(a1-3)]Gal(b1-3)GlcNAc(b1-2)Man(a1-3)[Fuc(a1-2)[GalNAc(a1-3)]Gal(b1-3)GlcNAc(b1-2)Man(a1-6)]Man(b1-4)GlcNAc(b1-4)[Fuc(a1-6)]GlcNAc
Procedure, shortened: as §1

[45] = molecular target: Fuc(a1-2)[GalNAc(a1-3)]Gal(b1-3)GlcNAc(b1-3)GalNAc
Procedure, shortened: as §1

B1: PX14375A-pdi-503-28-503 (Parabacteroides distasonis) (protein)
chain: PLGSPEAGDISEERQAFLRLTAVYSVMKDFRYTWSMQCFGDVLSNDATYSGSSNDAQTFTLLENYQYQADHTEILNKYRYSYQCINKANLFIRDMEMADDALFSKYDKEQMIGEAKFIRAYTYFELVKTFGGVPCYTGVLDLDHERLGRASVEEIYSVIEQDLNDAVSVLPKKSEVANYESSYAGRITKGAAIAMQTRIYLYEKKYDEVKKAFEKFQNECGGEYSLVAPEDYTWQFSLDGEHCSSSILEVNMYNSSTQSSYNVNNGNRHVLMSMPRNMTIGFGCAQPTQALADAYDAEGDVIRKKTTLLSTEEAIEIETAAKGDVAPVTDDRTGWYNRKLYLAPGQREENRGNNQPTNLRLIRLAEVYLNYAEACYFSGDIANAQKYLNEVRSHVNLAPKNHTGSQLFEDIMNERHLEFGMEGFRFFDVVRVGWGEKVFNGTKKAEFGAKTPFSAGAEVLPIPQTEIDISDGLITN
glycan array binding signal (z-score) [1]: -0.494 | glycan array binding signal (z-score) [2]: 0.129 | glycan array binding signal (z-score) [3]: 0.433 | glycan array binding signal (z-score) [4]: -0.332 | glycan array binding signal (z-score) [5]: 0.828 | glycan array binding signal (z-score) [6]: 0.079 | glycan array binding signal (z-score) [7]: -0.378 | glycan array binding signal (z-score) [8]: -0.25 | glycan array binding signal (z-score) [9]: 0.5 | glycan array binding signal (z-score) [10]: -0.222 | glycan array binding signal (z-score) [11]: 0.506 | glycan array binding signal (z-score) [12]: -0.279 | glycan array binding signal (z-score) [13]: -0.353 | glycan array binding signal (z-score) [14]: 0.279 | glycan array binding signal (z-score) [15]: 0.183 | glycan array binding signal (z-score) [16]: 0.686 | glycan array binding signal (z-score) [17]: -0.427 | glycan array binding signal (z-score) [18]: 0.293 | glycan array binding signal (z-score) [19]: 0.139 | glycan array binding signal (z-score) [20]: 0.34 | glycan array binding signal (z-score) [21]: -0.221 | glycan array binding signal (z-score) [22]: -0.302 | glycan array binding signal (z-score) [23]: -0.83 | glycan array binding signal (z-score) [24]: 1.43 | glycan array binding signal (z-score) [25]: -0.75 | glycan array binding signal (z-score) [26]: 0.169 | glycan array binding signal (z-score) [27]: 0.347 | glycan array binding signal (z-score) [28]: 0.356 | glycan array binding signal (z-score) [29]: -0.178 | glycan array binding signal (z-score) [30]: -0.223 | glycan array binding signal (z-score) [31]: -0.461 | glycan array binding signal (z-score) [32]: 0.796 | glycan array binding signal (z-score) [33]: -0.023 | glycan array binding signal (z-score) [34]: 0.501 | glycan array binding signal (z-score) [35]: 0.615 | glycan array binding signal (z-score) [36]: -0.077 | glycan array binding signal (z-score) [37]: -0.044 | glycan array binding signal (z-score) [38]: 0.557 | glycan array binding signal (z-score) [39]: -0.531 | glycan array binding signal (z-score) [40]: -0.157 | glycan array binding signal (z-score) [41]: -0.664 | glycan array binding signal (z-score) [42]: -0.172 | glycan array binding signal (z-score) [43]: -0.446 | glycan array binding signal (z-score) [44]: -0.166 | glycan array binding signal (z-score) [45]: -0.391

Reference: the supplement of paper PMC8728848
